## Library screening results

By UniProt entry, the sequences of proteins in these tests, tags left out.
UniProt E9BF75, entry or part of it: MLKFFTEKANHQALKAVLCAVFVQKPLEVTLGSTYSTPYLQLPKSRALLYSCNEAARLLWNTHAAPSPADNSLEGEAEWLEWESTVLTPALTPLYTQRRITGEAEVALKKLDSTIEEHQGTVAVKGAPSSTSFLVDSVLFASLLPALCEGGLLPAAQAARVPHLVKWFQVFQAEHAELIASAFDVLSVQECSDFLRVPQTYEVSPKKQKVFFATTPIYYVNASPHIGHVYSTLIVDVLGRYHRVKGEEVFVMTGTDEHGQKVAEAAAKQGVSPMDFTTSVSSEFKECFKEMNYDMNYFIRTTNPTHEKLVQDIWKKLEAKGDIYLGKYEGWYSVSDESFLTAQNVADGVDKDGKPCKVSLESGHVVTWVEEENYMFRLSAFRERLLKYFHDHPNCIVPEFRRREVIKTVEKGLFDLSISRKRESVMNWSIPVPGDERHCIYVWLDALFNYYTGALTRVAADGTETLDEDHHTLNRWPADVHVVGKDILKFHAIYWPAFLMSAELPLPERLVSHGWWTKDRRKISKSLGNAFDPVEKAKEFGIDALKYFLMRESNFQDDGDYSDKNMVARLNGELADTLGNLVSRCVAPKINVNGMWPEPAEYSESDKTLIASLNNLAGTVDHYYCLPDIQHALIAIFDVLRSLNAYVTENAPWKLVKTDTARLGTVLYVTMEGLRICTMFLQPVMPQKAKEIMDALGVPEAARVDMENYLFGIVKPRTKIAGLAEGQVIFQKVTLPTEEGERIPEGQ

LdMetRS: 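Methionyl-tRNA synthetase (putative), Leishmania donovani (UniProt E9BF75). Primary screen of methionyl-tRNA synthetase; the read-out is not stated. The test concentration is not given. Values are per cent inhibition. Of about 68,000 compounds tested this way, about 24 (0.035%) reached 50% or more in at least one test.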
Mtb heat-shock: 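Assay on Mycobacterium tuberculosis, filed only as a heat shock assay from Cornell; the read-out is not stated. The concentration is filed as 10 mM, unlikely as a test dose, so the dose is not known. The record gives no direction; compounds that gave an IC50 in retests scored well above the rest, so higher reads as stronger inhibition. Of about 69,000 compounds tested this way, about 930 (1.4%) reached 50% or more in at least one test.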

All values are in %. The controls that fix the scale are not given in the record; negative values are as filed. The compounds are a random part of those screened.

CC(Nc1ccc2c(c1)CCC2)c1nc(C2CC2)no1 (stereo not given) read LdMetRS: 16.28%; Mtb heat-shock: 3.822%. Result for O=C(c1cnnn1-c1ccccc1)N1CCCC(c2ccn[nH]2)C1 (stereo not given) was LdMetRS: 13.62%; Mtb heat-shock: -15.45%. With CS(=O)(=O)N1CCC(C(=O)NC(Cc2ccsc2)c2ccccn2)CC1 (stereo not given) the screen gave LdMetRS: 16.78%; Mtb heat-shock: -2.015%. With COCC(=O)N1CCCC1c1nc(C)c2c(n1)N(CC(C)C)C(=O)CC2 (stereo not given) the screen gave LdMetRS: 18.1%; Mtb heat-shock: -7.178%. For CCc1nnc2n1CCN(CC(=O)N1CCc3ccccc3C1)C2 the result was LdMetRS: 9.836%; Mtb heat-shock: -39.37%. Cc1cc(C)nc(C2CCN(C(=O)c3cnco3)C2)n1 (stereo not given) read LdMetRS: 15.43%; Mtb heat-shock: 7.551%. C[C@@H]1C[C@@H]2CCN(Cc3ccncc3)C[C@H]2O1 read LdMetRS: 10%.

With Cc1c(C(=O)NCCN2C(=O)CCC2=O)sc2ccc(F)cc12 the screen gave LdMetRS: -12.71%; Mtb heat-shock: 6.055%. For CCc1noc(CN(C)Cc2ccc(N3CCCCC3)cc2)n1 the result was LdMetRS: 7.087%; Mtb heat-shock: -16.86%. Result for CC(=O)N1CCC2(CCN(C(=O)c3cccc(C(F)(F)F)c3)CC2)C1 was LdMetRS: -6.536%; Mtb heat-shock: -26.8%. With COCCN1CCC(CN(CC2CCCO2)C(=O)Cc2cccs2)CC1 (stereo not given) the screen gave LdMetRS: 10.7%; Mtb heat-shock: 11.6%. For Nc1nc(CCNc2ncnc3c2CCN(C(=O)C2CC2)C3)cs1 the result was LdMetRS: 14.63%; Mtb heat-shock: 5.709%. CCN(CC)CCN(C)Cc1cn(C)nc1-c1ccc2c(c1)OCCO2 read LdMetRS: 11.88%; Mtb heat-shock: -34.34%. Result for Cl.c1nc(N2CCOCC2)sc1-c1cncn1CCCN1CCCCC1 was Mtb heat-shock: -3.925%.

O=C(O)C(F)(F)F.[H][C@@]12COC[C@]1(COCc1csc(C)n1)CN(Cc1cc(C)on1)C2 read Mtb heat-shock: -11.62%. CCN1CCCC(c2nc(O)c3cc(C)ccc3n2)C1 (stereo not given) gave LdMetRS: 7.429%; Mtb heat-shock: -22.77%. For O=C(CCc1cn[nH]c1)N1C[C@@H](CN2CCOCC2)C[C@H](CO)C1 the result was LdMetRS: -2.133%; Mtb heat-shock: -20.32%. O=C(CN1CCOCC1CC(=O)c1ccco1)NCc1ccccn1 (stereo not given) gave LdMetRS: 11.68%; Mtb heat-shock: 1.479%. COc1ccc(S(=O)(=O)NCC(c2cccn2C)N(C)C)c(C)c1 (stereo not given) read LdMetRS: 17.13%; Mtb heat-shock: -23.04%. For CCc1cc(CNC(=O)C2CCCN(C(=O)NCC(C)C)C2)[nH]n1 (stereo not given) the result was LdMetRS: 8.943%; Mtb heat-shock: 3.518%. CNCC[C@H]1CC(C)(C)Oc2ccc(C)cc21 gave LdMetRS: 15.78%; Mtb heat-shock: -14.76%.

CC1(C)CNC(=O)c2nc(CCN3CCOCC3)[nH]c2C1 gave LdMetRS: 18.73%; Mtb heat-shock: 16.66%. Result for CN(C)c1nc2c(c(N(C)C)n1)CCN(C(=O)CN1C[C@@H]3CC[C@H]1C3)C2 was LdMetRS: 17.01%.

From ChEMBL document CHEMBL3988442, “University of Dundee, Small-Polar-MMV Screening Library” (2021).